Library screen at single concentrations

By UniProt entry, the sequences of proteins in these tests, tags left out. Residues count along the entry.
UniProt Q4DA54, 1-478: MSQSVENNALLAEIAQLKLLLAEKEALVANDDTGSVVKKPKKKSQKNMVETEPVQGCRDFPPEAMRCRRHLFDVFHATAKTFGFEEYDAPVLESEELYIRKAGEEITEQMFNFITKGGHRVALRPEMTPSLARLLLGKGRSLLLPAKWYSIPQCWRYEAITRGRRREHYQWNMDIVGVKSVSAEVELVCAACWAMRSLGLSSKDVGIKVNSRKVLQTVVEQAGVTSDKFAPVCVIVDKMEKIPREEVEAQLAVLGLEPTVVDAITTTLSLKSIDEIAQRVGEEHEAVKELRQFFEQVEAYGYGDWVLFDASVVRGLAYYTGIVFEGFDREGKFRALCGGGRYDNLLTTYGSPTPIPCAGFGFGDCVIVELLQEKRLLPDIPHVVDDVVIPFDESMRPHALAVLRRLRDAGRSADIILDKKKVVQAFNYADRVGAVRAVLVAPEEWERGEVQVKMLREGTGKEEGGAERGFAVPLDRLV

Measurements from “University of Dundee, Small-Polar-MMV Screening Library” (2021), ChEMBL document CHEMBL3988442.

Results are given as percent effect.
The record does not define 0% and 100%; most values in the screen are far below 50% and negative numbers occur (in some assays of this library far below -100).
This is an unselected part of the compounds tested.
A dash means the value is not listed here; it may have been measured.

Toxoplasma: 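Assay of Toxoplasma gondii numbers, read through their beta-galactosidase reporter with a colour substrate. Compounds at 10 µM. Higher reads as fewer parasites (inferred from which compounds were picked for retests). Of about 67,000 compounds tested this way, about 260 (0.38%) reached 50% or more in at least one test.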
TcHisRS: 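Histidine-tRNA ligase, Trypanosoma cruzi CL Brener (UniProt Q4DA54). Enzyme assay of histidyl-tRNA synthetase; the read-out is not stated. Tested at 30 µM. The record gives no direction; compounds that gave an IC50 in retests scored well above the rest, so higher reads as stronger inhibition. About 69,000 compounds were tested under these conditions; 0.045% (about 31) showed 50% or more at least once.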

structure,Toxoplasma,TcHisRS
Cc1ncsc1CCC(=O)N1CCCC1c1cccnc1 (stereo not drawn),12.38,6.667
N#Cc1ccccc1CN1CCCC(c2nccn2CC2CCC2)C1 (stereo not drawn),4.661,8.235
CCN(CC1CCCCO1)C(=O)CCNC(=O)c1ccccc1F (stereo not drawn),-1.758,3.448
O=C(C1CCCO1)N1C[C@@H]2CCN(c3cnccn3)C[C@@H]2C1 (stereo partly drawn),-,3.365
O=C(O)C(F)(F)F.O=C(O)C(F)(F)F.O=C(O)C(F)(F)F.[H][C@@]12COC[C@]1(COc1cccnc1)CN(Cc1cccnc1OC)C2,-5.465,-
CCN(CC)S(=O)(=O)N1CCCC(c2ncc3c(n2)CCN(C)C3)C1 (stereo not drawn),17.51,23.73
COc1ccc(NC(=O)N(CCO)Cc2ccsc2)c(OC)c1,-25.93,0.8772
Cc1cc(C)n(Cc2cccc(C(=O)N(CCC#N)CCC#N)c2)n1,3.81,2.439
CC(=O)c1ccc(N2CCC3(CCC(=O)N(C4CC4)C3)CC2)nc1,-2.021,3.448
CCn1nc(C)cc1C(=O)N1CCCN(CCCc2ccccc2)CC1,12.27,8.163
COCCN1C[C@@H]2CN(c3ncccn3)C[C@@H]2C1=O,-,0.5348
COc1cccc(C(=O)N2CCN(Cc3nc(C(C)C)no3)CC2)c1,-36.05,3.488
COc1cccc(CN2CCc3nc(C(=O)NCC(C)C)sc3CC2)c1,-,-0.5348
O=c1c2ccccc2nc2n1CCN(Cc1cccs1)CC2,14.03,0.5405
Cc1cc(C(=O)N(C)Cc2cnn(C)c2C)n(C)n1,7.048,-0.4464
Cc1cc(CN2CCC(CNC(=O)c3ccc4[nH]cnc4c3)C2)[nH]n1 (stereo not drawn),-3.151,8.696
CCC(=O)NCC(=O)NCC1CCN(c2cc(Cl)ccc2C)C1 (stereo not drawn),-1.565,6.158
FC(F)(F)c1nc(NC2CCCCC2)c2ccccc2n1,3.673,-3.061
COc1ccc(CCNc2cc(-c3nc(C)no3)ccn2)cc1OC,5.643,1.961
CCN(C)c1ncnc2c1CCN(C(=O)c1ccoc1C)CC2.O=C(O)C(F)(F)F,5.967,-
CCn1nc2ccc(S(=O)(=O)N3CCSCC3)cn2c1=O,10.26,1.031
CC(C(=O)N1CCN(C)CC1)n1cc(Br)cn1 (stereo not drawn),7.744,1.739
c1coc(-c2noc(CN3CCCC3Cn3cncn3)n2)c1 (stereo not drawn),18.59,4
CN(C)C(=O)CN1C(=O)CCC12CCN(Cc1cccn1C)CC2,-,-3.008
CCN(CC)C(=O)Nc1ccc(N2CCSCC2)cc1C,1.063,1.478
Cc1nn(C)c(C)c1C1CCCN1Cc1nc(C2CC2)no1 (stereo not drawn),1.4,-1.149
[H][C@@]12CCN(C(=O)CCc3ccccc3Cl)C[C@]1([H])OCCNC2=O,4.423,-
CC(C)C(=O)N1CCN(c2ncnc3cc4c(cc23)OCCO4)CC1,49.63,8.696
O=C(O)C(F)(F)F.O=C(O)C(F)(F)F.c1cncc(CN2CCc3ncnc(C4CCOC4)c3CC2)c1 (stereo not drawn),-1.165,-
[H][C@@]12CCC(=O)N(Cc3cccc(C)n3)[C@]1([H])CCN2CC1CCOCC1,0.721,-
N#Cc1cccc(OCc2ccoc2C(=O)N2CCCCCC2)c1,-4.331,-0.8772
OC(CN1CCN(CC2CC2)CC1)c1ccc(Br)cc1 (stereo not drawn),-20.88,1.064
COc1ncc(-c2nccn2C(C)CCn2cccn2)cn1 (stereo not drawn),-3.055,4.712
Cc1cnc(C)c(N2CCCC(CO)(Cc3ccccc3C)C2)n1 (stereo not drawn),21.04,-0.6024
Cn1cncc1-c1nnc([C@H]2CCN(CC3CCCCC3)C2)o1,0.9172,-19.4
COc1ccc(NCC2(O)CCNCC2)cc1OC,-9.514,9.375
NC(=O)c1nc(-c2cccc(Cl)c2)oc1N,-1.842,4.95
COc1nn(C)c2c1CCCN(C(=O)c1ccccc1F)C2,3.644,3.067
CCC(=O)N1CCC(Cc2ccccc2-c2ccncc2)(C(=O)NC)C1 (stereo not drawn),18.18,6.742
Cc1cccc(C)c1NC(=O)c1cccc(CN2CCCC2C)c1 (stereo not drawn),-3.246,14.04
O=C(O)C1(Cc2cccc(-c3ccc(F)cc3)c2)CCOCC1,8.391,-5.319
Cc1ccc(CNCc2c(C(C)C)nn(C)c2N2CCOCC2)s1,-17.44,8.537
Cn1c(CN2CCOC(c3nc(C(C)(C)C)n[nH]3)C2)nnc1C1CC1 (stereo not drawn),-3.957,-0.3774

For reference, 4 entries once more:

| structure | Toxoplasma | TcHisRS |
|---|---|---|
| `CC(=O)c1ccc(N2CCC3(CCC(=O)N(C4CC4)C3)CC2)nc1` | -2.021 | 3.448 |
| `N#Cc1ccccc1CN1CCCC(c2nccn2CC2CCC2)C1` (stereo not drawn) | 4.661 | 8.235 |
| `O=C(O)C1(Cc2cccc(-c3ccc(F)cc3)c2)CCOCC1` | 8.391 | -5.319 |
| `N#Cc1cccc(OCc2ccoc2C(=O)N2CCCCCC2)c1` | -4.331 | -0.8772 |